For at least one compound, name, drawing or mass did not settle the structure.
Test system: YU-1077 cell line (EML4-ALK v3 G1202R)
Assay: YU-1077 3-day cell viability assay
Format: cell-based
Conditions: 3-day viability assay; fixed Emax=50%
Protocol: Mean±SEM plotted, n=5. IC50 values were calculated using fixed Emax=50%.
Cell line description: YU-1077 is a patient-derived cell line (PDC).

SMILES: C[C@H]1Oc2cc(cnc2N)-c2c(nn(C)c2C#N)CN(C)C(=O)c2ccc(F)cc21 [Lorlatinib, reference compound]
- IC50: 15 nM
